Source: doi:10.1101/2024.01.03.574047
No constants are given. Whether binding was seen depends on the method and setting. Binding seen in cells or lysates may run through a third protein. A yes stands for co-enrichment or nearness to the bait. Other partners may have been found.

Chains of the proteins cited; added tags and fusions are not shown.
UniProt Q6EVK6: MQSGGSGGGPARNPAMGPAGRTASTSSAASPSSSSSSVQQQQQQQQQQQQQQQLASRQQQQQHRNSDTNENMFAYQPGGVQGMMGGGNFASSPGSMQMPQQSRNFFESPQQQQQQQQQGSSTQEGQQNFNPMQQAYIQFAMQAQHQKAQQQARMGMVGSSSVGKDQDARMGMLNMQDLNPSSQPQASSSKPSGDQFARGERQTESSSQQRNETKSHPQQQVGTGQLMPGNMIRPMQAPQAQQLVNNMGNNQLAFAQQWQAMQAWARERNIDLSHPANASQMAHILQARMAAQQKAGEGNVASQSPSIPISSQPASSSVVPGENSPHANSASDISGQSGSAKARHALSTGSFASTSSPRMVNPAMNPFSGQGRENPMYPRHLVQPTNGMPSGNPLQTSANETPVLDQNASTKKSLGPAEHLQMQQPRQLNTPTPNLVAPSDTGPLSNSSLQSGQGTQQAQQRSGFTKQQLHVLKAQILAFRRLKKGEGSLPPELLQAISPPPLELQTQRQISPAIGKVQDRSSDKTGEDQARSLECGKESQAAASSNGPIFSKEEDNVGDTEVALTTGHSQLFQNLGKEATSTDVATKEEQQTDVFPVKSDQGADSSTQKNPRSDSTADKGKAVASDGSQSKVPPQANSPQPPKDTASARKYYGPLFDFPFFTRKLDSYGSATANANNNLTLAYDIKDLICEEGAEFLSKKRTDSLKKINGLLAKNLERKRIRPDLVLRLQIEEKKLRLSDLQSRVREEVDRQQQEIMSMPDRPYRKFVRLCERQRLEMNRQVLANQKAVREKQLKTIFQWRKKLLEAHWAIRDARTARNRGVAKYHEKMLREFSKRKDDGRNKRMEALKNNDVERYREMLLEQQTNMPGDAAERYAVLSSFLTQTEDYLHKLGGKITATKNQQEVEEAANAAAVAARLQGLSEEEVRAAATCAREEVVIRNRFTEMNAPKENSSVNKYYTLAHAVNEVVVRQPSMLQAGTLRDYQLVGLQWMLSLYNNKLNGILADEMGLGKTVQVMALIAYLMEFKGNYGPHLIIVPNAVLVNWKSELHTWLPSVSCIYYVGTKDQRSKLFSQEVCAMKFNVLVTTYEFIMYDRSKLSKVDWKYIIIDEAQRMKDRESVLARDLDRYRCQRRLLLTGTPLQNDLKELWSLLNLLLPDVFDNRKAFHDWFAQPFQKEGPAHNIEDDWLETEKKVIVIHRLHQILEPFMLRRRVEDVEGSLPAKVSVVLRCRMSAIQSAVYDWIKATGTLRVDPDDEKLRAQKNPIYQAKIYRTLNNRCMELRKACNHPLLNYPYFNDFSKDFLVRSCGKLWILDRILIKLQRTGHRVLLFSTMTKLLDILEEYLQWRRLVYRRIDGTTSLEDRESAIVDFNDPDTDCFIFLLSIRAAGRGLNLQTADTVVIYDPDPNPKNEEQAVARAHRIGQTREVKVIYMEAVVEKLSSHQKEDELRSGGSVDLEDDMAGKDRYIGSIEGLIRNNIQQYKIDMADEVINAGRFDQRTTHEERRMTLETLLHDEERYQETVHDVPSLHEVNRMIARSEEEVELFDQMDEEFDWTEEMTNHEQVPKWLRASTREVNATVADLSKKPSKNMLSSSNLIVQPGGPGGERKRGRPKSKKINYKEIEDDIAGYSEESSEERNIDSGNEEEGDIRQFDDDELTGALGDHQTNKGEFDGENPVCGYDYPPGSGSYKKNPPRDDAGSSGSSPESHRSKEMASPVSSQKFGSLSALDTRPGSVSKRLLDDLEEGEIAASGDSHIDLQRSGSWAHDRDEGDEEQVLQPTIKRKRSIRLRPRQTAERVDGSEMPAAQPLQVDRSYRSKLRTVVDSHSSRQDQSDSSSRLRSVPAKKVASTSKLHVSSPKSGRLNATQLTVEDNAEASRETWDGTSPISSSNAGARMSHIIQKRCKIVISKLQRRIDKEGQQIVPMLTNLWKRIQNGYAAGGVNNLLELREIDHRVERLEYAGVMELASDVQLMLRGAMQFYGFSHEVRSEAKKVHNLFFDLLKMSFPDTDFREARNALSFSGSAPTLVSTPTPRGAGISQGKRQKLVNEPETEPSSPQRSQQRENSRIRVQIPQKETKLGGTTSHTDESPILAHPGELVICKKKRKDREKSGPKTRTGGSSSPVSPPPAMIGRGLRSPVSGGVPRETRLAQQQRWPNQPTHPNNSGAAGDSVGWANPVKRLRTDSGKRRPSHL
UniProt Q9C5T4: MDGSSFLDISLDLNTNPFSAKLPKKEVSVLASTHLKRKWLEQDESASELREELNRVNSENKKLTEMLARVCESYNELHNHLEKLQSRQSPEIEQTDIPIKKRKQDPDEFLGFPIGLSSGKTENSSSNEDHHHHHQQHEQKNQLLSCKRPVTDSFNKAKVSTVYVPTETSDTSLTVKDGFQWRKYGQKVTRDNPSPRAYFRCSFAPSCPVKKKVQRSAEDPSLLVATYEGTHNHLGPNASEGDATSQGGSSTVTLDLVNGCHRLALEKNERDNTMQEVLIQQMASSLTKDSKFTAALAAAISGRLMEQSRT
UniProt F4JLS1: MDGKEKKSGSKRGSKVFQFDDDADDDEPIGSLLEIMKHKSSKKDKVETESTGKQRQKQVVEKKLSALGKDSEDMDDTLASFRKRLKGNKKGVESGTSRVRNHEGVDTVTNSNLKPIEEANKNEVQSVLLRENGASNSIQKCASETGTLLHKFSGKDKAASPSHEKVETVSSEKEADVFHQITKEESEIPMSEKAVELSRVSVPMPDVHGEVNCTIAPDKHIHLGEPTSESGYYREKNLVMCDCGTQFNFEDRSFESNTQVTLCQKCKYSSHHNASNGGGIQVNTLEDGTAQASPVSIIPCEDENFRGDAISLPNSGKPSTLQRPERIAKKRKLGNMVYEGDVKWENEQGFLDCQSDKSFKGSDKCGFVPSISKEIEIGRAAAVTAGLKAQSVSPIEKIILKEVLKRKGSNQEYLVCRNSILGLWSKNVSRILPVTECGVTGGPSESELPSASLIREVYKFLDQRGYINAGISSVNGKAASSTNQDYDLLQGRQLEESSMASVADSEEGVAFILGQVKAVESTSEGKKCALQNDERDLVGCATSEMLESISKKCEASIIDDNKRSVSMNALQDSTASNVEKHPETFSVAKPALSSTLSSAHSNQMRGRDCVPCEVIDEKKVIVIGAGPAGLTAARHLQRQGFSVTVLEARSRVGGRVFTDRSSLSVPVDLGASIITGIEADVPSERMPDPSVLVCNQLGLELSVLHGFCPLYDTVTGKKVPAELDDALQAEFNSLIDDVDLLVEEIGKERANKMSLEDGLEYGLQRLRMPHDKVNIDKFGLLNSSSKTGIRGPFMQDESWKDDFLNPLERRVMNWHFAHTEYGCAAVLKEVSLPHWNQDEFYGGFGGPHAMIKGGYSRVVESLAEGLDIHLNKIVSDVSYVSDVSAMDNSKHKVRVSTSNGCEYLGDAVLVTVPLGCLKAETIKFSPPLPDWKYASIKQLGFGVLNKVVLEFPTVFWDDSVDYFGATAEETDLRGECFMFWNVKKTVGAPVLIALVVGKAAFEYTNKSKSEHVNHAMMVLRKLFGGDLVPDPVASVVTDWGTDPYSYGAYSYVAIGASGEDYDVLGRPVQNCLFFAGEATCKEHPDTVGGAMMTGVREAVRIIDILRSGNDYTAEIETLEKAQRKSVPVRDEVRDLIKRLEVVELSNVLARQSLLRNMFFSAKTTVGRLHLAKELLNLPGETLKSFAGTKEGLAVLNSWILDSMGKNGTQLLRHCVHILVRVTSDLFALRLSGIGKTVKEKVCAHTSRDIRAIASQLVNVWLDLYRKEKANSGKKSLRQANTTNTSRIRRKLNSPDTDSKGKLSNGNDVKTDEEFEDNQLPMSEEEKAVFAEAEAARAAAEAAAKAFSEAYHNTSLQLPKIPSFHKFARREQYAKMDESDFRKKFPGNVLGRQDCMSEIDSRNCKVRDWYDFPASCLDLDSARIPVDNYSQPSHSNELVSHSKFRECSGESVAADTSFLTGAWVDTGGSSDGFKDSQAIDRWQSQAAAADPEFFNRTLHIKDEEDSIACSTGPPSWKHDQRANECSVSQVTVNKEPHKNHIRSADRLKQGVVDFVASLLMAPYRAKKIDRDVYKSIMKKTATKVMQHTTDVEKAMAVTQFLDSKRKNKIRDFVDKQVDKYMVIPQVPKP

Experiments:
[1] = biological target: NPR1-3xHA-TurboID (Arabidopsis) (UniProt P93002); assay: proximity labelling; TurboID in planta: 3-week-old 35S:NPR1-3xHA-TbID/npr1-2 plants, 1 mM SA, 1 h later 50 uM biotin for 3 h; streptavidin beads, stringent or harsh washes; label-free quantitative LC-MS/MS against YFP-YFP-TbID control
[2] = biological target: T1, NPR1-3xHA-TurboID (Arabidopsis), P93002; assay: as above; settings: remark: other sources report otherwise
T1 chain: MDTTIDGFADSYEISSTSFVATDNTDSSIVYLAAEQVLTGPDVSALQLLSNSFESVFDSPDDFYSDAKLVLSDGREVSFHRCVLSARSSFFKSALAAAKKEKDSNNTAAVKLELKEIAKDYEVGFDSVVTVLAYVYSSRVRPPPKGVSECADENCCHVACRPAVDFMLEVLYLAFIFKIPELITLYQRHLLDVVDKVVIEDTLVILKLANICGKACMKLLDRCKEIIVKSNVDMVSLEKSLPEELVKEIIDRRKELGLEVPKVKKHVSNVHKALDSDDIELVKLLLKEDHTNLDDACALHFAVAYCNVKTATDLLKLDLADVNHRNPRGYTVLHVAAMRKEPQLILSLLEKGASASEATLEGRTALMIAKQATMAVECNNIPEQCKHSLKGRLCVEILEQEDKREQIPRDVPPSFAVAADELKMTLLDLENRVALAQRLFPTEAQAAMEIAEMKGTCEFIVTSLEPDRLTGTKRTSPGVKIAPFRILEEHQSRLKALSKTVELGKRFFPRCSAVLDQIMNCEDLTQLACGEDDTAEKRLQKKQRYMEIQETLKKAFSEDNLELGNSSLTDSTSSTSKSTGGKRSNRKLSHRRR

Question: How did the binding [1] turn out when BRAHMA (from UniProt Q6EVK6 1-2193) was run?
Answer: Its binding is “binds”.

Question: With WRKY18 (from UniProt Q9C5T4 1-310) as the molecule, how does the binding [1] read?
Answer: Its binding is “binds”.

Question: “histone demethylase LSD1-like 3 (from UniProt F4JLS1 1-1628)” was tested. Which binding [1] did it give?
Answer: The binding was “binds”.

B1: NPR1-like protein 3, Q8L746 1-586 (protein)
chain: MATLTEPSSSLSFTSSHFSYGSIGSNHFSSSSASNPEVVSLTKLSSNLEQLLSNSDCDYSDAEIIVDGVPVGVHRCILAARSKFFQDLFKKEKKISKTEKPKYQLREMLPYGAVAHEAFLYFLSYIYTGRLKPFPLEVSTCVDPVCSHDCCRPAIDFVVQLMYASSVLQVPELVSSFQRRLCNFVEKTLVENVLPILMVAFNCKLTQLLDQCIERVARSDLYRFCIEKEVPPEVAEKIKQLRLISPQDEETSPKISEKLLERIGKILKALDSDDVELVKLLLTESDITLDQANGLHYSVVYSDPKVVAEILALDMGDVNYRNSRGYTVLHFAAMRREPSIIISLIDKGANASEFTSDGRSAVNILRRLTNPKDYHTKTAKGRESSKARLCIDILEREIRKNPMVLDTPMCSISMPEDLQMRLLYLEKRVGLAQLFFPTEAKVAMDIGNVEGTSEFTGLSPPSSGLTGNLSQVDLNETPHMQTQRLLTRMVALMKTVETGRRFFPYGSEVLDKYMAEYIDDDILDDFHFEKGSTHERRLKRMRYRELKDDVQKAYSKDKESKIARSCLSASSSPSSSSIRDDLHNTT
Question: Which binding [2] does the source give for B1 here?
Answer: Its binding is “binds”.

B2: NPR1-like protein 4 (protein, UniProt Q5ICL9 1-574)
chain: MAATAIEPSSSISFTSSHLSNPSPVVTTYHSAANLEELSSNLEQLLTNPDCDYTDAEIIIEEEANPVSVHRCVLAARSKFFLDLFKKDKDSSEKKPKYQMKDLLPYGNVGREAFLHFLSYIYTGRLKPFPIEVSTCVDSVCAHDSCKPAIDFAVELMYASFVFQIPDLVSSFQRKLRNYVEKSLVENVLPILLVAFHCDLTQLLDQCIERVARSDLDRFCIEKELPLEVLEKIKQLRVKSVNIPEVEDKSIERTGKVLKALDSDDVELVKLLLTESDITLDQANGLHYAVAYSDPKVVTQVLDLDMADVNFRNSRGYTVLHIAAMRREPTIIIPLIQKGANASDFTFDGRSAVNICRRLTRPKDYHTKTSRKEPSKYRLCIDILEREIRRNPLVSGDTPTCSHSMPEDLQMRLLYLEKRVGLAQLFFPAEANVAMDVANVEGTSECTGLLTPPPSNDTTENLGKVDLNETPYVQTKRMLTRMKALMKTVETGRRYFPSCYEVLDKYMDQYMDEEIPDMSYPEKGTVKERRQKRMRYNELKNDVKKAYSKDKVARSCLSSSSPASSLREALENPT
Question: B2 was tested. Which binding [1] did it give?
Answer: Its binding is “binds”.

B3: NIM1-interacting 1 (protein, UniProt Q9FNZ5 1-142)
chain: MYPKQFSLYNYSLETMSKDENVESKETIRVDKRVREDEEEEEEKKIDTFFKLIKHYQEARKRRREELAENSGVVRRKSNGGERSGIVVPAFQPEDFSQCRTGLKPPLMFVSDHKEENTKVEQEEDQTEERNEDKALDLNLAL
Question: How did the binding [1] turn out when B3 was run?
Answer: Its binding is “binds”.
